Measurements from patent US20250387419A1, “PARP INHIBITOR-RESISTANT PATIENT TREATED WITH TH-302” (ASCENTAWITS PHARMACEUTICALS, LTD., priority 2021, published 2025).
pIC50: −log10 of the molar value. Where two headings read alike, the source gives them in different places. At least one compound was matched to its structure with a doubt left.

How the values were obtained:
[1] = test system: human pancreatic cancer Capan-1 subcutaneous model; test: Efficacy in olaparib-resistant pancreatic cancer Capan-1 CDX model (3.1); assay type: in vivo, mouse; details: Day 35; olaparib 100 mg/kg; TH-302 75 mg/kg; combination 100 + 75 mg/kg
Experimental: The Capan-1 CDX model was an olaparib-resistant model with a pathogenic BRCA2 mutation.
Each nude female BALB/c mouse was subcutaneously inoculated at a lower portion of the right back with 5×10^5 Capan-1 cells resuspended in a 1:1 mixture of PBS and matrigel (0.1 ml per mouse). A total of 64 female mice were inoculated. The inoculation was conducted on Jun. 23, 2021. When tumors grew to an average volume of 140 mm^3, the mice were randomized by their tumor size into a total of 7 groups, 6 in each group: 100 mg/kg of the test drug olaparib as a monotherapy (Group 2); 75 mg/kg TH-302 in combination therapy with 100 mg/kg olaparib (Group 5); 75 mg/kg TH-302 as a monotherapy (Group 7); and 10% anhydrous ethanol+10% polyoxyethylene (35) castor oil+80% glucose injection solution D5W (pH 7.4) as a vehicle control. The vehicle control group and the TH-302 monotherapy and combination therapy groups were all administered through tail vein, once weekly for totally three weeks. […] Efficacy was evaluated based on relative tumor growth inhibition (TGI) rates (%), and safety was evaluated based on body weight changes and deaths of the animals.
In Table 8, T/C (%) represents a relative tumor proliferation rate at a certain point of time, which is calculated as a relative tumor volume or a tumor weight of a treatment group as a percentage of that of the control group according to: […]

[2] = test system: HuPrime lung cancer LU6429 subcutaneous model; test: Efficacy in olaparib-resistant lung cancer LU6429 PDX model; assay type: in vivo, mouse; details: TH-302 80, 40, 20 mg/kg
Experimental: The LU6429 PDX model was an olaparib-resistant model with a pathogenic BRCA2 mutation.
(§1) Protocol: Nude female Balb/c mice were subcutaneously inoculated with HuPrime® lung cancer LU6429 tumor tissue, establishing a human lung cancer subcutaneous xenograft tumor model. The mice were divided into 6 groups, 6 in each group: 50 mg/kg of the test drug olaparib as a monotherapy (Group 02); 80 mg/kg TH-302 as a monotherapy (Group 03); 40 mg/kg TH-302 as a monotherapy (Group 04); 20 mg/kg TH-302 as a monotherapy (Group 05); 40 mg/kg TH-302 in combination therapy with 50 mg/kg olaparib (Group 06); and a glucose injection solution as a vehicle control (Group 01). The vehicle control group and the TH-302 treatment groups were all administered through tail vein, once weekly for a total of 3 weeks. Olaparib was intragastrically administered once daily for totally 28 days. […]
(§2) Tumor growth of the treatment and control groups on different days in the experiment were recorded and shown in Table 17, and corresponding tumor volume growth curves of the mice in respective groups are shown in FIG. 9. […] Body weight changes of the treatment and control groups after administration were recorded to investigate safety of the groups in the HuPrime® lung cancer LU6429 subcutaneous model. […]

[3] = test system: HuPrime bladder cancer BL3325 subcutaneous model; test: Efficacy in olaparib-resistant bladder cancer BL3325 PDX model; assay type: in vivo, mouse
Experimental: The BL3325 PDX model was an olaparib-resistant model with a pathogenic BRCA2 mutation.
as §1, with “bladder” for “lung”, “BL3325” for “LU6429”, “30” for “28”
as §2, with “21,” for “17,”, “11.” for “9.”, “bladder” for “lung”, “BL3325” for “LU6429”

[4] = test system: A375 Cell Line (human malignant melanoma cells); details: ABT-888 1 h pretreatment, TH-302 2 h, 3 days incubation, cited from earlier work
[5] = test system: HCT116 Cell Line (human colon cancer cells); details: ABT-888 1 h pretreatment, TH-302 2 h, 3 days incubation, cited from earlier work
[6] = test system: H460 Cell Line (human large cell lung cancer cells); details: ABT-888 1 h pretreatment, TH-302 2 h, 3 days incubation, cited from earlier work
[7] = test system: human pancreatic cancer Capan-1 subcutaneous xenograft model; test: In-depth efficacy in olaparib-resistant pancreatic cancer Capan-1 CDX model (3.2); assay type: in vivo, mouse; details: TH-302 monotherapy 100, 50 (QW), 25 mg/kg
Experimental: Protocol: Nude BALB/c mice were subcutaneously inoculated with human pancreatic cancer Capan-1 cells, establishing a human pancreatic cancer subcutaneous xenograft model. The mice were divided into 7 groups, 6 in each group: 100 mg/kg of the test drug olaparib as a monotherapy (Group 2); 50 mg/kg of TH-302 as a monotherapy (Group 3, QD); 100 mg/kg of TH-302 as a monotherapy (Group 4); 50 mg/kg of TH-302 as a monotherapy (Group 5, QW); 25 mg/kg of TH-302 as a monotherapy (Group 6); 25 mg/kg TH-302 in combination therapy with 100 mg/kg olaparib (Group 7); and 10% anhydrous ethanol+10% polyoxyethylene (35) castor oil+80% glucose injection solution D5W (pH 7.4) as a vehicle control (Group 1). […]
as §2, with “13,” for “17,”, “7.” for “9.”, “human pancreatic” for “HuPrime® lung”, “Capan-1” for “LU6429”
A relative tumor proliferation rate, denoted as T/C %, is calculated as a relative tumor volume or a tumor weight of a treatment group as a percentage of that of the control group at a certain point of time according to: […]

With `Cn1c(COP(=O)(NCCBr)NCCBr)cnc1[N+](=O)[O-]` [TH-302, evofosfamide] the “Tumor growth inhibition effect” value [1] was “significant tumor growth inhibition effect”, the “Dose dependence of tumor growth inhibition” value [2] was “dose dependence” and the “Tumor growth inhibition effect” value ([2]; olaparib 50 mg/kg, 40 mg/kg TH-302 + 50 mg/kg olaparib) was “significant tumor proliferation inhibition effects”. The “Dose dependence of tumor growth inhibition” value ([3]; TH-302 80 vs 20 mg/kg) was “dose dependence”, the “Tumor growth inhibition effect” value ([3]; olaparib 50 mg/kg, TH-302 80, 40, 20 mg/kg, 40 mg/kg TH-302 + 50 mg/kg olaparib) was “significant tumor proliferation inhibition effects” and the pIC50 ([4]; Hypoxia) was 5.82. For the same compound, the pIC50 ([4]; Normoxia) was 3.64, the pIC50 ([5]; Hypoxia) was 7.00 and the pIC50 ([5]; Normoxia) was 4.21. For the same compound, the pIC50 ([6]; Hypoxia) was 6.70, the pIC50 ([6]; Normoxia) was 4.33 and the “Dose dependence of tumor growth inhibition” value [7] was “dose-dependent tumor growth inhibition effects”.
